Laboratory results published in article PMC3128695.
Results are given in words; binding and its absence hold for the method and conditions named. Some results given as binding are weak or reduced against the parent protein; the word gives no strength.

Amino acid sequences for entries named in this document (tags omitted).
UniProt P06223: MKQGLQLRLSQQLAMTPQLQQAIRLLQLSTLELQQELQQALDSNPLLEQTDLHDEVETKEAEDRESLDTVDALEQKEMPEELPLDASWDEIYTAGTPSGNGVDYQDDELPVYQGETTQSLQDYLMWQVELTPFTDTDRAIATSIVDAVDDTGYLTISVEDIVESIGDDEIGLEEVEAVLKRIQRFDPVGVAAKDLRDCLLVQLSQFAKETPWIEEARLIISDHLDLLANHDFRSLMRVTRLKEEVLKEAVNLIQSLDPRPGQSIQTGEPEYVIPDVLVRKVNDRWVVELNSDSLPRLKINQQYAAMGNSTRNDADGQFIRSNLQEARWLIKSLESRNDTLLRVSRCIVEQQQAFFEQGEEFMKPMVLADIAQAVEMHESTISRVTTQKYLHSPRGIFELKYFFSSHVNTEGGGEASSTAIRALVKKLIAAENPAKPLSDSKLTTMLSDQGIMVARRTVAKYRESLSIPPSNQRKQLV

Target: PspF(1–275)WT (AAA+ domain of PspF) (E. coli) (UniProt P37344)
Assay: native gel or EMSA; trapping with ADP-AlF: 1 μM radiolabelled HMK-σ^54, 2 μM PspF1–275 WT or W56A, different concentrations of PspAFL or fragments, 4 mM ADP, 5 mM NaF, 0.4 mM AlCl3, 37 °C; native 4.5% polyacrylamide gel in TG buffer; both purified

HMK-σ^54 (radiolabelled) (from UniProt P06223 1-477)
binding: binds
